One experiment addresses T1, GFP-SMC6 (human) (UniProt Q96SB8).
T1 sequence: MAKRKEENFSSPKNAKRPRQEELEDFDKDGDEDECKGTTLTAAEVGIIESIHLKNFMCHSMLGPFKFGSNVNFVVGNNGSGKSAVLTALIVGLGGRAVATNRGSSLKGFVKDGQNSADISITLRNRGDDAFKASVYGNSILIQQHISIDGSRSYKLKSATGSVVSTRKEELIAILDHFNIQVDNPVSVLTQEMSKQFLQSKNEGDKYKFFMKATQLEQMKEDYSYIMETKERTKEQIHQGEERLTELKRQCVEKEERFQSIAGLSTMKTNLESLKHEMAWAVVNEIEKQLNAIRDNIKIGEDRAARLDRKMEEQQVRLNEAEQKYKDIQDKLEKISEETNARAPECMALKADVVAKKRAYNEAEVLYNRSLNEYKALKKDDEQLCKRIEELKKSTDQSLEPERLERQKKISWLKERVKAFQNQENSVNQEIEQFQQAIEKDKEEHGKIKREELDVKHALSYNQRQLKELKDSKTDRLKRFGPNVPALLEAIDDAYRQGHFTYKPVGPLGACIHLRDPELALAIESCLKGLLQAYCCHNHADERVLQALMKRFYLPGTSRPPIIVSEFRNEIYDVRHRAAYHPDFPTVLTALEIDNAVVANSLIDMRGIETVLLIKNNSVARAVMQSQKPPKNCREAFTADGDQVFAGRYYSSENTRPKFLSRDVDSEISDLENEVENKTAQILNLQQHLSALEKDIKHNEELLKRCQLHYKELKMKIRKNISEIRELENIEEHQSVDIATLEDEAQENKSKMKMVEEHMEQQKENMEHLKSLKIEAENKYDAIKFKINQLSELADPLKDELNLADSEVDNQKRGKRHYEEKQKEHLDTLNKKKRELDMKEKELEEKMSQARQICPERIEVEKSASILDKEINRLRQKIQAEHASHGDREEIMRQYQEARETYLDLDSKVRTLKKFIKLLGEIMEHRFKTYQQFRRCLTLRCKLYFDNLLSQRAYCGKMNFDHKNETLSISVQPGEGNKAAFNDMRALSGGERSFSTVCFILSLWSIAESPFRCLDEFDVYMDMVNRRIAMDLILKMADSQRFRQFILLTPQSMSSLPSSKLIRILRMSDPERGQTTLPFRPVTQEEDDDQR
The experiment in a line: co-IP; GFP-Trap (Nano-Trap magnetic agarose, Chromotek) from HEK293 cells co-transfected with GFP-SMC6 (WT or mutant; bait), 2Myc-SIMC1 and FLAG-SLF2^CTD; western blot with anti-GFP, FLAG, Myc. Background: Immunoblotting shows a protein as a band on a membrane.

The target in another experiment is GFP-SIMC1 (human) (UniProt Q8NDZ2). The experiment in a line: co-IP; GFP-Trap (Nano-Trap magnetic agarose, Chromotek) from HEK293 cells co-transfected with GFP-SIMC1 (WT or mutant; bait), Myc-SMC6 and FLAG-SLF2^CTD (WT, mut1, mut2 or 635–1160); western blot.
Experiment [1] deals with T2, GFP-SIMC1 combo control mutant (human) (UniProt Q8NDZ2).
T2 sequence: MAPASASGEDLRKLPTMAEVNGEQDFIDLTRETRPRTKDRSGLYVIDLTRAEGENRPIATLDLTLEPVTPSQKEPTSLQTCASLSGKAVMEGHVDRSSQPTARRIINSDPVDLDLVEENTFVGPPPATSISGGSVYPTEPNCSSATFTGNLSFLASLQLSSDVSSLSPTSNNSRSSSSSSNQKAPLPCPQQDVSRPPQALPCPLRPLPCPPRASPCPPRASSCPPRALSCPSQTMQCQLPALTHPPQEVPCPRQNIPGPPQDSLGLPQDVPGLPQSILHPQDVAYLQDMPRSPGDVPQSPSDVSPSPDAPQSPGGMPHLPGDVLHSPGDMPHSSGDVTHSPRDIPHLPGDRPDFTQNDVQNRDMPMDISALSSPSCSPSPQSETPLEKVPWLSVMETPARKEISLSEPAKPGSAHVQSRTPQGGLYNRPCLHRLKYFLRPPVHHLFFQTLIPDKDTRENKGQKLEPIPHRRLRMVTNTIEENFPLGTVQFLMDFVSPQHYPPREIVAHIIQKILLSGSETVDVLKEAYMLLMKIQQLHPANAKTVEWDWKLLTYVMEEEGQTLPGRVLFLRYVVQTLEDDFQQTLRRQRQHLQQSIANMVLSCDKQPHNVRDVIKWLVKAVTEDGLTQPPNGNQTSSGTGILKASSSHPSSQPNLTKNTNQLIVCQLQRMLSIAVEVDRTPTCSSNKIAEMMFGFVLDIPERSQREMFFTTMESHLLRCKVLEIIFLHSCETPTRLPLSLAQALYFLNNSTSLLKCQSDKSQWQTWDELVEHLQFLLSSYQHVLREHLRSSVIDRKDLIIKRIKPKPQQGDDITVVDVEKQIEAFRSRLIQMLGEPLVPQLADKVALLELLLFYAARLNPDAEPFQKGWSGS
The experiment is described as above.

No constants are given. Whether binding was seen depends on the method and setting. Binding seen in cells or lysates may run through a third protein. Some entries that bind do so weakly or less than the wild type. Tags and fused reporters may be left off the sequences shown.

From publication PMC12656486 come the findings set out here.

Regarding 2Myc-SIMC1 (from UniProt Q8NDZ2 1-872), the binding result in the experiment with GFP-SMC6 (human) is recorded as “binds”.

B1: Myc-SMC6 (protein, UniProt Q96SB8 1-1091)
chain: T1 sequence
Turning to B1, the binding entry (with GFP-SIMC1 (human); in experiment [1]) was “binds” each time.
